In the experiment the target is NH2-terminal propeptide of the precursor of pulmonary surfactant protein SP-B (recombinant human SP-BN) (human) (UniProt P07988). Nature of the experiment: condition: only without added NaCl (5 mM Tris-HCl pH 7); 0.15 mg·mL^-1; AUC; sedimentation velocity, 0.15 mg/mL SP-BN in 5 mM Tris-HCl pH 7.0 without NaCl, 20°C, 48,000 rpm; only 6% of the loaded protein detected; both purified.

These are yes or no findings as the source states them, for the method shown.

B1: NH2-terminal propeptide of the precursor of pulmonary surfactant protein SP-B (recombinant human SP-BN) (domain or fragment, UniProt P07988 24-200, looked up)
chain: AWTTSSLACAQGPEFWCQSLEQALQCRALGHCLQEVWGHVGADDLCQECEDIVHILNKMAKEAIFQDTMRKFLEQECNVLPLKLLMPQCNQVLDDYFPLVIDYFQNQTDSNGICMHLGLCKSRQPEPEQEPGMSDPLPKPLRDPLPDPLLDKLVLPVLPGALQARPGPHTQDLSEQQ
notes: 177 amino acids, 19,902 Da from the composition; Not glycosylated (made in bacteria); also called N-terminal propeptide of proSP-B; the propeptide; source: E. coli, expressed as fusion MBP-SP-BN, purified after cleaving the fusion with factor Xa
Take B1: the binding result is “no binding”.

Source of the values: publication PMC4933373, “Conformational Stability of the NH2-Terminal Propeptide of the Precursor of Pulmonary Surfactant Protein SP-B” (PLoS ONE, 2016).
